These results are taken from patent publication CN110734897A.

In assay [1] the target is 食蟹猴SIRPα (XP_015313155 …: tyrosine-protein phosphatase non-receptor type substrate 1 isoform X2 [Macaca fascicularis])，过表达于CHO-K1稳定细胞株 (Macaca fascicularis). The assay is described as follows: flow cytometry screen on CHO-K1 cells overexpressing cynomolgus SIRPα. (In flow cytometry, cells or beads pass a laser one at a time.)
Assay [2] has the same target. Put plainly: flow cytometry on CHO-K1 cells overexpressing cynomolgus SIRPα, purified antibody.

No constants are given. Whether binding was seen depends on the method and setting. Some results given as binding are weak or reduced against the parent protein; the word gives no strength.

B1: 杂交瘤细胞株12G6产生的抗人SIRPα单克隆抗体 (antibody, IgG2b, V domains shown)
VH: QIQLVQSGPELKKPGETVKISCKASGYTFTNYGMHWVKQAPGKDLKWMGWINTYTGEPTNADDFKGRFAFSLETSDRTAFLQINNLKNEDTATYFCARGHHYGNYAWFAYWGQGTLVTVSA
VL: DIVMTQSHKFMSTSVGDRVSITCKASQDVSLAVAWYQQKPGQSPKVLIYWASTRHTGVPDRFAGSGSGTDYTLTISSVQAEDLALYYCQQHYSTPWTFGGGTKLEIN
For B1, the binding result in assay [1] and in assay [2] was “binds” throughout.
